{
  "sequences": {"note": "The chains behind the UniProt entries cited, without tags or fusion partners. Residues count along the entry.", "UniProt Q9Y2K2, whole entry": "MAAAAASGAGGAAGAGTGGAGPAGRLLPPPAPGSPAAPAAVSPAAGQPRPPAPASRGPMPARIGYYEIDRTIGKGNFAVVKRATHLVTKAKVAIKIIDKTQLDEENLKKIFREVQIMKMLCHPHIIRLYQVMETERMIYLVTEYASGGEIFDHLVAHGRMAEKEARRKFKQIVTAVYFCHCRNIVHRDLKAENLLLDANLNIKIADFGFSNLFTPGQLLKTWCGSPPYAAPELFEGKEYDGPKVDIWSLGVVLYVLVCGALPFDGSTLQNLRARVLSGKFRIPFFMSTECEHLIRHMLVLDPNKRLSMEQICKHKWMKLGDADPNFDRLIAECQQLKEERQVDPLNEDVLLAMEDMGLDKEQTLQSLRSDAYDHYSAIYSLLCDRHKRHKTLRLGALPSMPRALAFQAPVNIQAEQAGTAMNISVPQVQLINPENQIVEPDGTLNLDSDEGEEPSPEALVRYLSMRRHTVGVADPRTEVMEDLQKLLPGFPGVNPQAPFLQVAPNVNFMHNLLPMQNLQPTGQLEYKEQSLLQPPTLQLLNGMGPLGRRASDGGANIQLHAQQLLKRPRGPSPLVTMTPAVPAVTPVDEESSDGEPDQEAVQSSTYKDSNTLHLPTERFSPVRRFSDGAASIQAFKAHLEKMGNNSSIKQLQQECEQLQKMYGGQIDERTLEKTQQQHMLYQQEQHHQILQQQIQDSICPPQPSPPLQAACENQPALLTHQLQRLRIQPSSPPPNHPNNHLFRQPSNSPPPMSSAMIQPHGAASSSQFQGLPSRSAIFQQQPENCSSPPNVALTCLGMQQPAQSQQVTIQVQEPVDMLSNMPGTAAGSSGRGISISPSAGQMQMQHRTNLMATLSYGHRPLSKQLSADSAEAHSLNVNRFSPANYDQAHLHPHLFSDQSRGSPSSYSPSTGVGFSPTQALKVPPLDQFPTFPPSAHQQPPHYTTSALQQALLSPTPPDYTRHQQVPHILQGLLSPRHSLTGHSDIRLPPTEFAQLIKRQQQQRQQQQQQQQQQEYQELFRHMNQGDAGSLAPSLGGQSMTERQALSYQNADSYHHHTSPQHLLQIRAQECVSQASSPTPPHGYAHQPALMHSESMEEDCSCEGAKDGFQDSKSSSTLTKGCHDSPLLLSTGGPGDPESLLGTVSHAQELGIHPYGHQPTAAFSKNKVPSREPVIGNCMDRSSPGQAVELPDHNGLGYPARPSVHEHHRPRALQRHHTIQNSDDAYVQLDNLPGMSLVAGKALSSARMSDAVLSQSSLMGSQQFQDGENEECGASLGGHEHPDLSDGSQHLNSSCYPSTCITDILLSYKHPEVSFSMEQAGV", "UniProt P57059, whole entry": "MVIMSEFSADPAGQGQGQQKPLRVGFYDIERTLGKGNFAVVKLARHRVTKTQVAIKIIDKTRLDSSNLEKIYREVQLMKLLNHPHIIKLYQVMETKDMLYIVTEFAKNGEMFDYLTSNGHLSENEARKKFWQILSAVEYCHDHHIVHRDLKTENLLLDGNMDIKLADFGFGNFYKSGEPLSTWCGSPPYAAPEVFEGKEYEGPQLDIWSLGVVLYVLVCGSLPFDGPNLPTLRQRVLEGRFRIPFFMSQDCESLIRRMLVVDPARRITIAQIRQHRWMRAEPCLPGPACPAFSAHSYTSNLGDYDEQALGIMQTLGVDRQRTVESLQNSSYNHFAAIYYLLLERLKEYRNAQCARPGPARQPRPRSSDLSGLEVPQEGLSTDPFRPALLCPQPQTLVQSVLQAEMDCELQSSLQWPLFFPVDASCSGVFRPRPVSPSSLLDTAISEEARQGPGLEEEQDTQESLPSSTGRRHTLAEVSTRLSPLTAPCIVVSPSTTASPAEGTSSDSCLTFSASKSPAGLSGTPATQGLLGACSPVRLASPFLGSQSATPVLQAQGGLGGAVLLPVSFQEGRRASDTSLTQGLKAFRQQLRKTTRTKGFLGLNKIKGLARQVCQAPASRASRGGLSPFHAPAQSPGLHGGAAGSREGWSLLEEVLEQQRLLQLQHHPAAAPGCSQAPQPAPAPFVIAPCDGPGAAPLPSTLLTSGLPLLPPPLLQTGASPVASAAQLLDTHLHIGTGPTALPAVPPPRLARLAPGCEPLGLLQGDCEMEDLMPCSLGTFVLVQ", "UniProt Q9H0K1, whole entry": "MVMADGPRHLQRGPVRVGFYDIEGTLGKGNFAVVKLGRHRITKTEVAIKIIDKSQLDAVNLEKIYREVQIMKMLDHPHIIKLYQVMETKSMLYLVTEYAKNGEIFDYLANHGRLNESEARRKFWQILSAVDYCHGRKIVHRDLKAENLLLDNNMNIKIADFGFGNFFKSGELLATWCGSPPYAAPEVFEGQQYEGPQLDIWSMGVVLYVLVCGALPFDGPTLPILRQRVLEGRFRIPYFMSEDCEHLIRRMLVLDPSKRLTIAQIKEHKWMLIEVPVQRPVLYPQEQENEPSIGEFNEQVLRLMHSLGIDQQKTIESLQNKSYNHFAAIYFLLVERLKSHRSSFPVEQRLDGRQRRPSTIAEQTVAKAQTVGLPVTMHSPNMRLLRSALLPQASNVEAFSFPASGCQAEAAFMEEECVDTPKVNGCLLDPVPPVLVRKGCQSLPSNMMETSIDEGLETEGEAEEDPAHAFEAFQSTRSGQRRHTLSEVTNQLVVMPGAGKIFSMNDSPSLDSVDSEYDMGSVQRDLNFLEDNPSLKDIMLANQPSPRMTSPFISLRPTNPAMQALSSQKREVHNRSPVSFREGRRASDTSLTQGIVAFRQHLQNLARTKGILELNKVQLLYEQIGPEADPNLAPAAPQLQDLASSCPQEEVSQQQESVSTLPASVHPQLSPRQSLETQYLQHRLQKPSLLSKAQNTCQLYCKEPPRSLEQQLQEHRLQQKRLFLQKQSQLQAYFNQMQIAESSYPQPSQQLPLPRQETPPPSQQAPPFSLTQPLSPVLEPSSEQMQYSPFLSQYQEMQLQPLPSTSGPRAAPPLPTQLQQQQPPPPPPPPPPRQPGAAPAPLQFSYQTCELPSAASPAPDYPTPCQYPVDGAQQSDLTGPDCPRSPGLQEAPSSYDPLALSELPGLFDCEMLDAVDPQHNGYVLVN", "UniProt P29317, 24-976 limits assumed": "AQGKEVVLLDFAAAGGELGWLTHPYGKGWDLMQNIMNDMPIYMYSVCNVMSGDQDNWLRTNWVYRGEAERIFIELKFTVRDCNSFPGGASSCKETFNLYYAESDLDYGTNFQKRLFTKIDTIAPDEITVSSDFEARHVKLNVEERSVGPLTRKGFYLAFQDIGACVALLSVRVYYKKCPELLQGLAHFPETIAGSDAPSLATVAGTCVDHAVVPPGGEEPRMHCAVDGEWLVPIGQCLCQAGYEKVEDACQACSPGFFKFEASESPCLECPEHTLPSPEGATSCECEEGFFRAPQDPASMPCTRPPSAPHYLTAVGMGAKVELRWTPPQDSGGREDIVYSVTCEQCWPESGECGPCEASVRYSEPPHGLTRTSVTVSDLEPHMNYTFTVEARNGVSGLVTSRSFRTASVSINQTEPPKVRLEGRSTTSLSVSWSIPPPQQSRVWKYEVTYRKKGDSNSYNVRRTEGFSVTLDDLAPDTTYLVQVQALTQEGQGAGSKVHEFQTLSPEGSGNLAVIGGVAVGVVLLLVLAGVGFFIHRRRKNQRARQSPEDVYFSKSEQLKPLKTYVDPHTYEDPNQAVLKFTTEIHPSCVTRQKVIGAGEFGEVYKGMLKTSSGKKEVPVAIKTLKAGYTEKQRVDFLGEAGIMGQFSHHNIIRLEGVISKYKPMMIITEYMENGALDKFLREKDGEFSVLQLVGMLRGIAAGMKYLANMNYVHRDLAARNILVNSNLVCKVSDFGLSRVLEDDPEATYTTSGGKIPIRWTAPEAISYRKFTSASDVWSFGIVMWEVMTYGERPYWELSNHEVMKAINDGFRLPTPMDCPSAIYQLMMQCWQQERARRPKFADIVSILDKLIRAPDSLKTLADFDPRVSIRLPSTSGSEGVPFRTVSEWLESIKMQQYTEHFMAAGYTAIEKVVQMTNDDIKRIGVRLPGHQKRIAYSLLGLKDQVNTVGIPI", "UniProt P00519, whole entry": "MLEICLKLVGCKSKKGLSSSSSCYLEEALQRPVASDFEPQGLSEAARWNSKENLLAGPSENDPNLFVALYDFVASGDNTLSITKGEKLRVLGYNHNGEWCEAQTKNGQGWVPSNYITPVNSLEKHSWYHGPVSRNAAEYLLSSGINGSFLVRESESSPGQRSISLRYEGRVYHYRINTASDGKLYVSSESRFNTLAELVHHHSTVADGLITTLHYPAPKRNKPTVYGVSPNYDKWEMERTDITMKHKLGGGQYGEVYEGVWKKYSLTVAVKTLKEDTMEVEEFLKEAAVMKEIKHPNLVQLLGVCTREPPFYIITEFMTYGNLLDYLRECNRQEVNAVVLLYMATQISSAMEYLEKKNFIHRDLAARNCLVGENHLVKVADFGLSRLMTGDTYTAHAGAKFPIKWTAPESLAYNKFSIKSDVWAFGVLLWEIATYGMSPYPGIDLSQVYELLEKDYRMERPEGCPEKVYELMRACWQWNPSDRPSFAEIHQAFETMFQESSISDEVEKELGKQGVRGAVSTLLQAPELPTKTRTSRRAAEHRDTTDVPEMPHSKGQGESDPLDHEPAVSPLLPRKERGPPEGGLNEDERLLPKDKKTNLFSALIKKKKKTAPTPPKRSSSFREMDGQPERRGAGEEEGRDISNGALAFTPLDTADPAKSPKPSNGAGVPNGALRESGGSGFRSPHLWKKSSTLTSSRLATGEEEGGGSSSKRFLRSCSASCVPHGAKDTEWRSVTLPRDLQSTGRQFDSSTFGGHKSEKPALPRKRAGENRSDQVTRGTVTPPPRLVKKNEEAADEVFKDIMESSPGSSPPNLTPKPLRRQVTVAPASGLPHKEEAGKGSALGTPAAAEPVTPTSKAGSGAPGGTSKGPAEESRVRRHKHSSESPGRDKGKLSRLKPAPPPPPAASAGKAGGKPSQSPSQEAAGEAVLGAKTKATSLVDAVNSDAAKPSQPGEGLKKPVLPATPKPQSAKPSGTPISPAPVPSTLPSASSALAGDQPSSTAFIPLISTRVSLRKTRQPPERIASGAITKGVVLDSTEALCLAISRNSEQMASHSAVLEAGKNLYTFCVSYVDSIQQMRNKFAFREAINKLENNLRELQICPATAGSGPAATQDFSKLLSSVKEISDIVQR"},
  "source": "patent US12637428B2",
  "about": "“Isoquinoline derivatives as SIK2 inhibitors” (Cancer Research Technology Limited, priority 2019, dated 2026)",
  "key": {"SIK3": {"target": "SIK3 (Homo sapiens, UniProt Q9Y2K2)", "assay": "SIK3 kinase assay, IMAP fluorescence polarization", "settings": "read-out: SIK3 - AVERAGE Ki, 50 or 100 μM ATP", "procedure": "(§1) SIK2, SIK1, SIK3, Abl, Src and EPHA2 Kinase Assays\n(§2) SIK2, SIK1, SIK3, Abl, Src and EPHA2 assays were performed using an IMAP fluorescence polarization assay format (Molecular Devices Inc.). 0.6-13 nM of each kinase (Life Technologies) was incubated for 60 min at room temperature with 100 nM of either FAM-Abltide, FAM-Srctide or FAM-HDAC protein derived peptide (synthesized by Alta Biosciences, Birmingham UK). Assays were carried out in the presence of 50 or 100 μM ATP in either 20 mM Tris buffer (pH 7.2) containing 4 mM MgCl2, 0.2% BSA and 2 mM DTT (SIK2, SIK1, SIK3, Abl, Src); or 20 mM Tris buffer (pH 8.5) containing 20 mM MgCl2, 0.5% BSA, 0.2% Triton and 5 mM DTT (EPHA2). Typically, dose response analyses were performed over concentration ranges from 0.00005-1 μM. Reactions were stopped by adding 2 assay volumes of 0.25% (v/v) IMAP binding reagent in either an 85:15 ratio (SIK2, SIK1, SIK3, Abl, EPHA2) or 30:70 ratio (Src) of IMAP binding buffers A and B (Molecular Devices). After incubation to allow the detection reagents to bind to the phosphorylated peptide, fluorescence polarization was measured on a Tecan Infinite plate reader at excitation (470 nm) and emission (530 nm) wavelengths. Inhibition was calculated using no inhibitor and no enzyme controls as 0 and 100% inhibition, respectively. […]"}, "Src": {"target": "Src (Homo sapiens, UniProt P12931)", "assay": "Src kinase assay, IMAP fluorescence polarization", "settings": "read-out: Src - AVERAGE Ki, 50 or 100 μM ATP", "procedure": "as §1, §2"}, "SIK1": {"target": "SIK1 (Homo sapiens, UniProt P57059)", "assay": "SIK1 kinase assay, IMAP fluorescence polarization", "settings": "read-out: SIK1 - AVERAGE Ki, 50 or 100 μM ATP", "procedure": "as §1, §2"}, "SIK2": {"target": "SIK2 (Homo sapiens, UniProt Q9H0K1)", "assay": "SIK2 kinase assay, IMAP fluorescence polarization", "settings": "read-out: SIK2 - AVERAGE Ki, 50 or 100 μM ATP", "procedure": "as §1, §2"}, "EPHA2": {"target": "EPHA2 (Homo sapiens, UniProt P29317)", "assay": "EPHA2 kinase assay, IMAP fluorescence polarization", "settings": "read-out: EPHA2 - AVERAGE Ki, 50 or 100 μM ATP, Tris pH 8.5", "procedure": "as §1, §2"}, "Abl": {"target": "Abl (Homo sapiens, UniProt P00519)", "assay": "Abl kinase assay, IMAP fluorescence polarization", "settings": "read-out: Abl - AVERAGE Ki, 50 or 100 μM ATP", "procedure": "as §1, §2"}},
  "note": "The match of structure and compound is tentative.",
  "data": [
    {"compound": "Cc1cccc(F)c1-c1cc(NC[C@H]2CCCCN2)c2cc(N)ncc2c1", "values": [
      {"measurement": "Ki", "setting": "SIK3", "value": 8.93, "unit": "nM"},
      {"measurement": "Ki", "setting": "Src", "value": 261, "unit": "nM"},
      {"measurement": "Ki", "setting": "SIK1", "value": 1.74, "unit": "nM"},
      {"measurement": "Ki", "setting": "SIK2", "value": 0.376, "unit": "nM"},
      {"measurement": "Ki", "setting": "EPHA2", "value": "> 1000", "unit": "nM"},
      {"measurement": "Ki", "setting": "Abl", "value": 74.1, "unit": "nM"}
    ]}
  ]
}
